Source: patent US12351591B2, “KRas inhibitors” (ELI LILLY AND COMPANY, priority 2022, dated 2025)
Some entries share one result that the patent states for a list of compounds.

The chains behind the UniProt entries cited, without tags or fusion partners. Residues count along the entry.
UniProt P01116, 1-188 isoform P01116-2 G12D: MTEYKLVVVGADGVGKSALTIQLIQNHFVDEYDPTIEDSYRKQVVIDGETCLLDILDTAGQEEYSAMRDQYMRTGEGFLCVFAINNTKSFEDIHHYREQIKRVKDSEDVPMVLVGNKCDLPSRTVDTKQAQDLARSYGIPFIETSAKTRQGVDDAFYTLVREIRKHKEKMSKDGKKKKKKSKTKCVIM

The compounds below were run against T1, KRas G12D (Homo sapiens, UniProt P01116, G12D) (assay: PANC-1 Cellular Active RAS GTPase ELISA (KRas G12D Mutation)). Conditions: PANC-1 cells, 2 hours; read-out: relative IC50, inhibition of constitutive RAS GTPase activity (KRas G12D mutant).
T1 construct: host or cells: PANC-1
Format: cell-based
In the case of `N#Cc1c(N)sc2c(F)ccc(-c3c4c(c5ccc(OC[C@H]6CCCO6)nc5c3Cl)COC4)c12` [Example 8, 2-Amino-4-[5-chloro-7-[[(2R)-tetrahydrofuran-2-yl]methoxy]-1,3-dihydrofuro[3,4-f]quinolin-4-yl]-7-fluoro-benzothiophene-3-carbonitrile], the IC50 is reported as less than 100 nM. Work on `N#Cc1c(N)sc2ccc(F)c(-c3c4c(c5c(N6C7CCC6CNC7)ncnc5c3F)COC4)c12` (single isomer, unassigned; isomer 2) [Example 1, 2-Amino-4-[1-(3,8-diazabicyclo[3.2.1]octan-8-yl)-5-fluoro-7,9-dihydrofuro[3,4-f]quinazolin-6-yl]-5-fluoro-benzothiophene-3-carbonitrile, Isomer 2] yielded an IC50 of less than 100 nM. With `CN1CC2CCC(C1)N2c1nc(OC[C@@H]2CCCN2C)nc2c(F)c(-c3ncc(F)c4sc(N)c(C#N)c34)c3c(c12)COC3` [Example 235, 2-Amino-7-fluoro-4-[5-fluoro-1-(3-methyl-3,8-diazabicyclo[3.2.1]octan-8-yl)-3-[[(2S)-1-methylpyrrolidin-2-yl]methoxy]-7,9-dihydrofuro[3,4-f]quinazolin-6-yl]thieno[3,2-c]pyridine-3-carbonitrile] the IC50 was less than 100 nM. Work on `CN1C[C@H](F)C[C@H]1COc1nc(N2C3CCC2CN(CCCO)C3)c2c3c(c(-c4c(F)ccc5sc(N)c(C#N)c45)c(F)c2n1)COC3` (single isomer, unassigned) [Example 140] yielded an IC50 of less than 100 nM. Compound `C[C@@H](O)CN1CC2CCC(C1)N2c1nc(OC[C@@]23CCCN2C[C@H](F)C3)nc2c(F)c(-c3c(F)ccc4sc(N)c(C#N)c34)c3c(c12)COC3` [Example 167, 2-Amino-5-fluoro-4-[5-fluoro-3-[[(2R,8S)-2-fluoro-1,2,3,5,6,7-hexahydropyrrolizin-8-yl]methoxy]-1-[3-[(2R)-2-hydroxypropyl]-3,8-diazabicyclo[3.2.1]octan-8-yl]-7,9-dihydrofuro[3,4-f]quinazolin-6-yl]benzothiophene-3-carbonitrile] has an IC50 of less than 100 nM. With `N#Cc1c(N)sc2c(F)cnc(-c3c4c(c5c(N6C7CCC6CNC7)nc(OC[C@@]67CCCN6C[C@H](F)C7)nc5c3F)COC4)c12` [Example 64, 2-Amino-4-[1-(3,8-diazabicyclo[3.2.1]octan-8-yl)-5-fluoro-3-[[(2R,8S)-2-fluoro-1,2,3,5,6,7-hexahydropyrrolizin-8-yl]methoxy]-7,9-dihydrofuro[3,4-f]quinazolin-6-yl]-7-fluoro-thieno[3,2-c]pyridine-3-carbonitrile] the IC50 was less than 100 nM. For `COCCN1CC2CCC(C1)N2c1nc(OC[C@@]23CCCN2C[C@@H](F)C3)nc2c(F)c(-c3ncc(F)c4sc(N)c(C#N)c34)c3c(c12)COC3` (racemic) [Example 242, 2-Amino-7-fluoro-4-[5-fluoro-3-[[(2SR,8SR)-2-fluoro-1,2,3,5,6,7-hexahydropyrrolizin-8-yl]methoxy]-1-[3-(2-methoxyethyl)-3,8-diazabicyclo[3.2.1]octan-8-yl]-7,9-dihydrofuro[3,4-f]quinazolin-6-yl]thieno[3,2-c]pyridine-3-carbonitrile], the IC50 was less than 100 nM. In the case of `N#Cc1c(N)sc2cccc(-c3cc4nc(OC[C@@]56CCCN5C[C@H](F)C6)nc(N5C6CCC5CN(CCCO)C6)c4c4c3COC4)c12` [Example 137, 2-Amino-4-[3-[[(2R,8S)-2-fluoro-1,2,3,5,6,7-hexahydropyrrolizin-8-yl]methoxy]-1-[3-(3-hydroxypropyl)-3,8-diazabicyclo[3.2.1]octan-8-yl]-7,9-dihydrofuro[3,4-f]quinazolin-6-yl]benzothiophene-3-carbonitrile], the IC50 is reported as less than 100 nM. Compound `N#Cc1c(N)sc2c(F)cnc(-c3c4c(c5c(N6C7CCC6CN(CCOC(F)F)C7)nc(OC[C@@]67CCCN6C[C@H](F)C7)nc5c3F)COC4)c12` [Example 371, 2-Amino-4-[1-[3-[2-(difluoromethoxy)ethyl]-3,8-diazabicyclo[3.2.1]octan-8-yl]-5-fluoro-3-[[(2R,8S)-2-fluoro-1,2,3,5,6,7-hexahydropyrrolizin-8-yl]methoxy]-7,9-dihydrofuro[3,4-f]quinazolin-6-yl]-7-fluoro-thieno[3,2-c]pyridine-3-carbonitrile] has an IC50 of less than 100 nM. `Cc1cnc(-c2c3c(c4c(N5C6CCC5CN(C)C6)nc(OC[C@@]56CCCN5C[C@H](F)C6)nc4c2F)COC3)c2c(C#N)c(N)sc12` [Example 132, 2-Amino-4-[5-fluoro-3-[[(2R,8S)-2-fluoro-1,2,3,5,6,7-hexahydropyrrolizin-8-yl]methoxy]-1-(3-methyl-3,8-diazabicyclo[3.2.1]octan-8-yl)-7,9-dihydrofuro[3,4-f]quinazolin-6-yl]-7-methyl-thieno[3,2-c]pyridine-3-carbonitrile] gave an IC50 of less than 100 nM. `N#Cc1c(N)oc2c(F)ccc(-c3c4c(c5c(N6C7CCC6CN(CC6COC6)C7)nc(OC[C@@]67CCCN6C[C@H](F)C7)nc5c3F)COC4)c12` [Example 135, 2-Amino-7-fluoro-4-[5-fluoro-3-[[(2R,8S)-2-fluoro-1,2,3,5,6,7-hexahydropyrrolizin-8-yl]methoxy]-1-[3-(oxetan-3-ylmethyl)-3,8-diazabicyclo[3.2.1]octan-8-yl]-7,9-dihydrofuro[3,4-f]quinazolin-6-yl]benzofuran-3-carbonitrile] was tested, and the IC50 was less than 100 nM. `C[C@@H](O)CN1CC2CCC(C1)N2c1nc(OC[C@@H]2CCCN2CCO)nc2c(F)c(-c3c(F)ccc4sc(N)c(C#N)c34)c3c(c12)COC3` (single isomer, unassigned) [Example 181] was tested, and the IC50 was less than 100 nM. In the case of `C[C@@H](O)CN1CC2CCC(C1)N2c1nc(OC[C@H]2CN(C)CCO2)nc2c(F)c(-c3c(F)ccc4sc(N)c(C#N)c34)c3c(c12)COC3` (single isomer, unassigned) [Example 354], the IC50 is reported as less than 100 nM. In the case of `COCCCN1CC2CCC(C1)N2c1nc(OC[C@@]23CCCN2C[C@H](F)C3)nc2c(F)c(-c3ccnc4sc(N)c(C#N)c34)c3c(c12)COC3` [Example 348, 2-Amino-4-[5-fluoro-3-[[(2R,8S)-2-fluoro-1,2,3,5,6,7-hexahydropyrrolizin-8-yl]methoxy]-1-[3-(3-methoxypropyl)-3,8-diazabicyclo[3.2.1]octan-8-yl]-7,9-dihydrofuro[3,4-f]quinazolin-6-yl]thieno[2,3-b]pyridine-3-carbonitrile], the IC50 is reported as less than 100 nM. For `CN1CC2CC(C1)N2c1nc(OC[C@H]2CN(C)CCO2)nc2c(F)c(-c3c(F)ccc4sc(N)c(C#N)c34)c3c(c12)COC3` (single isomer, unassigned) [Example 340], the IC50 was less than 100 nM. Work on `N#Cc1c(N)sc2c(F)cnc(-c3c4c(c5c(N6C7CCC6CN(CCCF)C7)nc(OC[C@@]67CCCN6C[C@H](F)C7)nc5c3F)COC4)c12` [Example 372, 2-Amino-7-fluoro-4-[5-fluoro-3-[[(2R,8S)-2-fluoro-1,2,3,5,6,7-hexahydropyrrolizin-8-yl]methoxy]-1-[3-(3-fluoropropyl)-3,8-diazabicyclo[3.2.1]octan-8-yl]-7,9-dihydrofuro[3,4-f]quinazolin-6-yl]thieno[3,2-c]pyridine-3-carbonitrile] yielded an IC50 of less than 100 nM. For `N#Cc1c(N)oc2c(F)ccc(-c3c4c(c5c(N6C7CCC6CNC7)nc(OC[C@@]67CCCN6C[C@H](F)C7)nc5c3F)COC4)c12` [Example 67, 2-Amino-4-[1-(3,8-diazabicyclo[3.2.1]octan-8-yl)-5-fluoro-3-[[(2R,8S)-2-fluoro-1,2,3,5,6,7-hexahydropyrrolizin-8-yl]methoxy]-7,9-dihydrofuro[3,4-f]quinazolin-6-yl]-7-fluoro-benzofuran-3-carbonitrile], the IC50 was less than 100 nM.
